# Test results published in publication PMC9174988.
# Sequences of proteins named here, by UniProt entry; tags and fusion partners are left off.
# UniProt P60879: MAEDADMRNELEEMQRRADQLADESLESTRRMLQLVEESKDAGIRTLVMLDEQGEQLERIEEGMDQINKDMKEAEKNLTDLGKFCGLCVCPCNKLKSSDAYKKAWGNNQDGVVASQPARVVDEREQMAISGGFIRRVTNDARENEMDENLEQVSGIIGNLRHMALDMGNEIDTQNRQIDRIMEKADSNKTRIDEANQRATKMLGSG
# UniProt Q8BVE3: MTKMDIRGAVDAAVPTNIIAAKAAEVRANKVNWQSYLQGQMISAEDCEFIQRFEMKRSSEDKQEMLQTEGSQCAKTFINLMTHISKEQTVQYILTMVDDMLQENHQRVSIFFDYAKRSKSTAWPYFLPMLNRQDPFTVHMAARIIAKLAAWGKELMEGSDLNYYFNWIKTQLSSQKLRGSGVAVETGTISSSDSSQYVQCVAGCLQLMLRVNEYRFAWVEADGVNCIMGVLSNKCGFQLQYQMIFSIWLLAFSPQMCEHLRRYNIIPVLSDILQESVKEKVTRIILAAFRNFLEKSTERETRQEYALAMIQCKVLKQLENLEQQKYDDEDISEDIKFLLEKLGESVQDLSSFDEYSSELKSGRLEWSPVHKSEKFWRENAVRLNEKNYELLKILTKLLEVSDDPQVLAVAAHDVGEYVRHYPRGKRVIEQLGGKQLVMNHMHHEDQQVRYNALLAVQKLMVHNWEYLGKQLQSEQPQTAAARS
# UniProt P61264: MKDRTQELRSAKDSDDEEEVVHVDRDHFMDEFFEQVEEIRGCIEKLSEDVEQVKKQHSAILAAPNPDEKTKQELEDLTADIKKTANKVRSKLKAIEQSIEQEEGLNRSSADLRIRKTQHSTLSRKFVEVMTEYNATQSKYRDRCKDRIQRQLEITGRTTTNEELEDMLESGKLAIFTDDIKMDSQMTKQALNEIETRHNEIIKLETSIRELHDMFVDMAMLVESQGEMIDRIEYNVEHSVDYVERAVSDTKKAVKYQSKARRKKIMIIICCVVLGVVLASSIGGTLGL
# UniProt Q9Z1G4: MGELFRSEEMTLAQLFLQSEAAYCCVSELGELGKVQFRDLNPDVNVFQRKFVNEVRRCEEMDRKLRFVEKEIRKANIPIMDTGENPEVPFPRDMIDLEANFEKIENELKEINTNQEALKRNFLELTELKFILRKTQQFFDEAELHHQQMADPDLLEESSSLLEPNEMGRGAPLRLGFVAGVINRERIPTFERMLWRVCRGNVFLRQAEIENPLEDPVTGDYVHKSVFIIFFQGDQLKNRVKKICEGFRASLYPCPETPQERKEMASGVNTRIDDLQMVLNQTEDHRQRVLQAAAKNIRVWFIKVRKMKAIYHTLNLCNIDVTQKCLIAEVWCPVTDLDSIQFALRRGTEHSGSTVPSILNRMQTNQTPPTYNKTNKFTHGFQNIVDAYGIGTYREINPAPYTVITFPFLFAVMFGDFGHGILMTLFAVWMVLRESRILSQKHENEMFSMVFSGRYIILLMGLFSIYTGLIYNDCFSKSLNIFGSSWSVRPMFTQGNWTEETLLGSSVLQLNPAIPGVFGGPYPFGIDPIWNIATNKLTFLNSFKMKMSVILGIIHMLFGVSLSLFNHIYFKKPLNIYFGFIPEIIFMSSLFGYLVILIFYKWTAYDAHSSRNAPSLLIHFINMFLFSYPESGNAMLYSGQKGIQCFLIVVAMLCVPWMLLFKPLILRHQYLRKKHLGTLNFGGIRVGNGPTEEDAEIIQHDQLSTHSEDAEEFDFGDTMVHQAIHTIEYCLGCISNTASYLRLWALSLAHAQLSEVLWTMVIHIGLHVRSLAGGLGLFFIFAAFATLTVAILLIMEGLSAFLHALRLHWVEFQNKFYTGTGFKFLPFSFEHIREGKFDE
# These are yes or no findings as the source states them, for the method shown. In cells and extracts the contact can be indirect. Some binding calls cover weakened binding; strength is not graded here. For part of these data: Sequences can lack the tags named with a protein.
# Legend:
# [1] = molecular target: T1, hCLN6 (AAV9-hCLN6 transgene) (human) (UniProt Q9NWW5); assay: co-IP; hCLN6 (AAV9-hCLN6 representatives) immunoprecipitation; Western blot of partners; input ~3% of total protein loaded on IPs
# T1 sequence: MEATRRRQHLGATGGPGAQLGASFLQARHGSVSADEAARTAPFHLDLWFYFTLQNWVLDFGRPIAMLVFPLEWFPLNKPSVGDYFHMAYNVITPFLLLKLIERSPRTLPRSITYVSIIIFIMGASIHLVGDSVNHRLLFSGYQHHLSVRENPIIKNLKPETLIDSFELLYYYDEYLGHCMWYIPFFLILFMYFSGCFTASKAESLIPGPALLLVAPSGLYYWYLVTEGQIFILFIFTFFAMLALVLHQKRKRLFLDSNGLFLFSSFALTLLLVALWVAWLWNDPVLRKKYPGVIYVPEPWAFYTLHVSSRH
# [2] = molecular target: CLN8 (tagged CLN8 expression plasmid) (UniProt Q9UBY8); assay: co-IP; tagged CLN3 or CLN8 expression plasmids used for immunoprecipitation; Western blot of partners; input ~3% of total protein loaded on IPs
# [3] = molecular target: T2, CLN3 (tagged CLN3 expression plasmid) (UniProt Q13286); assay: as above
# T2 sequence: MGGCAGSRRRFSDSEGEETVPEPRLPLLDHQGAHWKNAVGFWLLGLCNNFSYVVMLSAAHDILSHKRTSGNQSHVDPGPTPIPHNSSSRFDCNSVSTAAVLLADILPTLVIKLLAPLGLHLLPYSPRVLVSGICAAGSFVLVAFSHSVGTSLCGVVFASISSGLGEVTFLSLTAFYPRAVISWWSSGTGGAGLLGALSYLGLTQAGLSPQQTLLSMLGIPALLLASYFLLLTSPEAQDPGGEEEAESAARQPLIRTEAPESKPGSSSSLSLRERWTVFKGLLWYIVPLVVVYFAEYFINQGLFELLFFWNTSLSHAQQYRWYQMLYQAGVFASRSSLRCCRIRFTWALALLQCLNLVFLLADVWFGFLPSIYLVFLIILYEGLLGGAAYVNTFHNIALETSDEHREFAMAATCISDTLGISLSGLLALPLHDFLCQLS
# [4] = molecular target: Synaptosome associated protein 25 (mouse (endogenous in mouse cortex)) (UniProt P60879); assay: co-IP; P30 mouse brain (cortex) lysate of wild type, Cln3Δex7/8, Cln6nclf and Cln8mnd mice immunoprecipitated with anti-SNAP25 antibody; blots for STX1B, STX1 and VAMP; input ~3%
binding [1],Substance,other results
binds,ATPase H+ Transporting V1 Subunit H (mouse cortex) (from UniProt Q8BVE3 1-483),–
–,ATPase H+ Transporting V1 Subunit H (in neuroblastoma cells) (from UniProt Q8BVE3 1-483),binding [2]: binds
–,STX1B (in neuroblastoma cells) (from UniProt P61264 1-288),binding [3]: binds
binds,STX1B (mouse cortex) (from UniProt P61264 1-288),binding [4]: binds
binds,ATP6V0A1 (mouse cortex) (from UniProt Q9Z1G4 1-839),–
